From US20220323521A1, “Compositions and Uses for Engineered Therapeutic Microbes and Associated Receptors” (The Brigham and Women`s Hospital, Inc., priority 2019, published 2022)

B1: H7-2: human P2Y2 receptor mutant A76T A229V F307S (protein, UniProt P41231 1-377, looked up, variant A76T A229V F307S)
P2Y purinoceptor 2: MAADLGPWNDTINGTWDGDELGYRCRFNEDFKYVLLPVSYGVVCVPGLCLNAVALYIFLCRLKTWNASTTYMFHLTVSDALYAASLPLLVYYYARGDHWPFSTVLCKLVRFLFYTNLYCSILFLTCISVHRCLGVLRPLRSLRWGRARYARRVAGAVWVLVLACQAPVLYFVTTSARGGRVTCHDTSAPELFSRFVAYSSVMLGLLFAVPFAVILVCYVLMARRLLKPVYGTSGGLPRAKRKSVRTIAVVLAVFALCFLPFHVTRTLYYSFRSLDLSCHTLNAINMAYKVTRPLASANSCLDPVLYSLAGQRLVRFARDAKPPTGPSPATPARRRLGLRRSDRTDMQRIEDVLGSSEDSRRTESTPAGSENTKDIRL

Tested on: human P2Y2 receptor
Experiment: Expression of C-terminal GFP tagged human P2Y2 receptor mutants in yeast (flow cytometry, microscopy)
Format: cell-based
Settings: C-terminal GFP tag, versus WT P2Y2

| Molecule | Human P2Y2 receptor expression in yeast |
| --- | --- |
| H7-1: human P2Y2 receptor mutant K240N F307S [Mutant H7-1] | expression levels similar to those of WT P2Y2 receptor |
| TM-2: human P2Y2 receptor mutant L59I C119S | increased |
| TM-3: human P2Y2 receptor mutant N116S | expression levels similar to those of WT P2Y2 receptor |
| B1 | expression levels similar to those of WT P2Y2 receptor |
